Measured values taken from paper PMC12305721 (International Journal of Pharmaceutics: X, 2025).

Conditions: from water solubility <0.1 mg/mL and log P > 2.0

**Q.** Which “Biopharmaceutics Classification System (BCS) class” value does the source give for `Nc1nc2ccc(OC(F)(F)F)cc2s1` [Riluzole] here?
**A.** The value was “Class II”.
